Data published in publication PMC12485055.
No constants are given. Whether binding was seen depends on the method and setting. Binding seen in cells or lysates may run through a third protein. Here binding means that the protein was enriched with, or labelled near, the bait; the list need not be complete.

The chains behind the UniProt entries cited, without tags or fusion partners.
UniProt Q01860: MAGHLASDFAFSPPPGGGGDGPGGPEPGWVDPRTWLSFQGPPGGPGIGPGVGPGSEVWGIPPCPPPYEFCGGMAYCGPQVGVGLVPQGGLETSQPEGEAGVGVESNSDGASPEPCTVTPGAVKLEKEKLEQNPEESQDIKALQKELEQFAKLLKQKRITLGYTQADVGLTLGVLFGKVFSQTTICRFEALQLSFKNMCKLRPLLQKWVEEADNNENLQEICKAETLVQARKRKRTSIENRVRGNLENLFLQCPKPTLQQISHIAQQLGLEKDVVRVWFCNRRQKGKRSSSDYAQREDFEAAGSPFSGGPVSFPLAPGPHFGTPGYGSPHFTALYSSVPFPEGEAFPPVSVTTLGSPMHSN
UniProt Q01196: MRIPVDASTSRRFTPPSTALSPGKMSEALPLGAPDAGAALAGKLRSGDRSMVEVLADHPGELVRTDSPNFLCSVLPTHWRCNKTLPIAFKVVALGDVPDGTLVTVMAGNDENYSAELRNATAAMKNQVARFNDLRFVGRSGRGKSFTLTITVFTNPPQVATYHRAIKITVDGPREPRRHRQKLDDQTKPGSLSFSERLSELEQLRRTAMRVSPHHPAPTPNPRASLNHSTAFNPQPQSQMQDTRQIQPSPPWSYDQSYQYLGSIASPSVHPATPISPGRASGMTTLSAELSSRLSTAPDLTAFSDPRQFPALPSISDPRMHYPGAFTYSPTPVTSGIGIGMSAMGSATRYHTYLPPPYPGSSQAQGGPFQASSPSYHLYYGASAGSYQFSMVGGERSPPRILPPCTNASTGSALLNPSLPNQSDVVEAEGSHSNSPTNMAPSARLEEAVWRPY
UniProt Q13185: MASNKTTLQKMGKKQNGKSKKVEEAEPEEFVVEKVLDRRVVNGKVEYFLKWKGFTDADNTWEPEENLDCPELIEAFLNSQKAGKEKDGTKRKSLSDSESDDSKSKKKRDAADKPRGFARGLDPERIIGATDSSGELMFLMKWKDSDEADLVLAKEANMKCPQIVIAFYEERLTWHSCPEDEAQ
UniProt Q9Y5B9: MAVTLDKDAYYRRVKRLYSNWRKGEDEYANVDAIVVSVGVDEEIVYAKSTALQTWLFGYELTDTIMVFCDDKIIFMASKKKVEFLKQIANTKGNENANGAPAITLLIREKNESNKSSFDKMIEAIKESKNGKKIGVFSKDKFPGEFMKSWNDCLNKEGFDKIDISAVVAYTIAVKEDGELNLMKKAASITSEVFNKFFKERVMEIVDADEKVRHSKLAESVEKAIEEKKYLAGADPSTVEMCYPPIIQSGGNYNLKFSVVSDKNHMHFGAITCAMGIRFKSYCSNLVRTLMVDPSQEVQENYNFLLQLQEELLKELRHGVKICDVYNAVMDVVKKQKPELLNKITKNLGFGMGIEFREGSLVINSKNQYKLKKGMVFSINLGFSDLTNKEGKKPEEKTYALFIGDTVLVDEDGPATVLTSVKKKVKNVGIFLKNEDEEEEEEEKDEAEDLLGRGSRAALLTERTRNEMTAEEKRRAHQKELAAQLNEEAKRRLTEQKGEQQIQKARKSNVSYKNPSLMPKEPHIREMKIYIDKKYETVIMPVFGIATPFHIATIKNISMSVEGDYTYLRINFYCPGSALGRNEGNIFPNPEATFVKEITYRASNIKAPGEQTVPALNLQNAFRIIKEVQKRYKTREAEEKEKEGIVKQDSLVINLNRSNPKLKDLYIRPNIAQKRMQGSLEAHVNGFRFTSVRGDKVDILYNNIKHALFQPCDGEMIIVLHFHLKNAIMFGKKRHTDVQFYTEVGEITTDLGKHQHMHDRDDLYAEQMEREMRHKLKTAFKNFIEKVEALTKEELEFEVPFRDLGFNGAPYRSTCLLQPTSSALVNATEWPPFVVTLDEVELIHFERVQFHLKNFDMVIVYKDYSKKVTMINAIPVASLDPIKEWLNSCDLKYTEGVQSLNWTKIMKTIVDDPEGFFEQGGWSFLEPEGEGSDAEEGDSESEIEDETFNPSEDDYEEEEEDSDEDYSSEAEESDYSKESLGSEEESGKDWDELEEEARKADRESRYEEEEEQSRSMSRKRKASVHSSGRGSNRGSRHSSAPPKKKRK
UniProt P23760: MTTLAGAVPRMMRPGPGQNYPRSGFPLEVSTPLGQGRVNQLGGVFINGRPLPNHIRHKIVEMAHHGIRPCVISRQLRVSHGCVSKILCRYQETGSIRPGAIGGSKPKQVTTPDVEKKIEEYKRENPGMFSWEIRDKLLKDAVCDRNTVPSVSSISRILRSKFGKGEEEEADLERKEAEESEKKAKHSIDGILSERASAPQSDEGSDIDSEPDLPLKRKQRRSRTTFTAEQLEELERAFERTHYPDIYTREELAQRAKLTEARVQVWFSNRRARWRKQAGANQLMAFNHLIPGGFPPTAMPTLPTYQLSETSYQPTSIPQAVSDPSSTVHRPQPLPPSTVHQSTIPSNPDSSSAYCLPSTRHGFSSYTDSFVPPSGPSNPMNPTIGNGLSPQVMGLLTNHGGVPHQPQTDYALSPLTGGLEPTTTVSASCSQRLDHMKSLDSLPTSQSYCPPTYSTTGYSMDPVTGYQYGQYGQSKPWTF
UniProt P23769: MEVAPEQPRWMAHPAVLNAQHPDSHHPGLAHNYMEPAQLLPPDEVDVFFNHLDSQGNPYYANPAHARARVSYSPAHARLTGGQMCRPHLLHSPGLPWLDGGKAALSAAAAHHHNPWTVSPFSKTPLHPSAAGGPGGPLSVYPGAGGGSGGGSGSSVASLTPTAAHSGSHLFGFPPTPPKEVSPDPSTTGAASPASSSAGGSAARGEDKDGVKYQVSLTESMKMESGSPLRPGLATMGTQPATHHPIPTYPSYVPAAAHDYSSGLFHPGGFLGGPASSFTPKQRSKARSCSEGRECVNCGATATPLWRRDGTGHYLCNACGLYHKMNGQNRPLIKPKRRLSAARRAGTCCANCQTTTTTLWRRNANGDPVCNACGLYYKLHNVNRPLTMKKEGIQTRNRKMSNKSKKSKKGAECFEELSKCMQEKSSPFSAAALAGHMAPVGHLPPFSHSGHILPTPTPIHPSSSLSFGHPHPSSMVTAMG

B1: L1TD1 (protein, UniProt Q5T7N2 1-865)
chain: MSDVSTSVQSKFARLAKKKENITYMKREQLTETDKDIAPVLDLKCKDVSAIMNKFKVLMEIQDLMFEEMRETLKNDLKAVLGGKATIPEVKNSENSSSRTEFQQIINLALQKTGMVGKIEGENSKIGDDNENLTFKLEVNELSGKLDNTNEYNSNDGKKLPQGESRSYEVMGSMEETLCNIDDRDGNRNVHLEFTERESRKDGEDEFVKEMREERKFQKLKNKEEVLKASREEKVLMDEGAVLTLVADLSSATLDISKQWSNVFNILRENDFEPKFLCEVKLAFKCDGEIKTFSDLQSLRKFASQKSSVKELLKDVLPQKEEINQGGRKYGIQEKRDKTLIDSKHRAGEITSDGLSFLFLKEVKVAKPEEMKNLETQEEEFSELEELDEEASGMEDDEDTSGLEEEEEEPSGLEEEEEEEASGLEEDEASGLEEEEEQTSEQDSTFQGHTLVDAKHEVEITSDGMETTFIDSVEDSESEEEEEGKSSETGKVKTTSLTEKKASRRQKEIPFSYLVGDSGKKKLVKHQVVHKTQEEEETAVPTSQGTGTPCLTLCLASPSKSLEMSHDEHKKHSHTNLSISTGVTKLKKTEEKKHRTLHTEELTSKEADLTEETEENLRSSVINSIREIKEEIGNLKSSHSGVLEIENSVDDLSSRMDILEERIDSLEDQIEEFSKDTMQMTKQIISKERQRDIEERSRSCNIRLIGIPEKESYENRAEDIIKEIIDENFAELKKGSSLEIVSACRVPSKIDEKRLTPRHILVKFWNSSDKEKIIRASRERREITYQGTRIRLTADLSLDTLDARSKWSNVFKVLLEKGFNPRILYPAKMAFDFRGKTKVFLSIEEFRDYVLHMPTLRELLGNNIP
B2: LIN28A (protein, UniProt Q9H9Z2 1-209)
chain: MGSVSNQQFAGGCAKAAEEAPEEAPEDAARAADEPQLLHGAGICKWFNVRMGFGFLSMTARAGVALDPPVDVFVHQSKLHMEGFRSLKEGEAVEFTFKKSAKGLESIRVTGPGGVFCIGSERRPKGKSMQKRRSKGDRCYNCGGLDHHAKECKLPPQPKKCHFCQSISHMVASCPLKAQQGPSAQGKPTYFREEEEEIHSPTLLPEAQN
B3: HELLS (protein, UniProt Q9NRZ9 1-838)
chain: MPAERPAGSGGSEAPAMVEQLDTAVITPAMLEEEEQLEAAGLERERKMLEKARMSWDRESTEIRYRRLQHLLEKSNIYSKFLLTKMEQQQLEEQKKKEKLERKKESLKVKKGKNSIDASEEKPVMRKKRGREDESYNISEVMSKEEILSVAKKNKKENEDENSSSTNLCVEDLQKNKDSNSIIKDRLSETVRQNTKFFFDPVRKCNGQPVPFQQPKHFTGGVMRWYQVEGMEWLRMLWENGINGILADEMGLGKTVQCIATIALMIQRGVPGPFLVCGPLSTLPNWMAEFKRFTPDIPTMLYHGTQEERQKLVRNIYKRKGTLQIHPVVITSFEIAMRDRNALQHCYWKYLIVDEGHRIKNMKCRLIRELKRFNADNKLLLTGTPLQNNLSELWSLLNFLLPDVFDDLKSFESWFDITSLSETAEDIIAKEREQNVLHMLHQILTPFLLRRLKSDVALEVPPKREVVVYAPLSKKQEIFYTAIVNRTIANMFGSSEKETIELSPTGRPKRRTRKSINYSKIDDFPNELEKLISQIQPEVDRERAVVEVNIPVESEVNLKLQNIMMLLRKCCNHPYLIEYPIDPVTQEFKIDEELVTNSGKFLILDRMLPELKKRGHKVLLFSQMTSMLDILMDYCHLRDFNFSRLDGSMSYSEREKNMHSFNTDPEVFIFLVSTRAGGLGINLTAADTVIIYDSDWNPQSDLQAQDRCHRIGQTKPVVVYRLVTANTIDQKIVERAAAKRKLEKLIIHKNHFKGGQSGLNLSKNFLDPKELMELLKSRDYEREIKGSREKVISDKDLELLLDRSDLIDQMNASGPIKEKMGIFKILENSEDSSPECLF

Experiments:
OCT4 wild type (human) = OCT4 wild type (human) (UniProt Q01860); assay: affinity purification with mass spectrometry; ChIP-SICAP: anti-OCT4 antibody (ab19857) on Protein G beads, DSG + formaldehyde cross-linked sonicated chromatin of human fibroblasts dox-induced 48 h with OSKM (OCT4 WT or mutant); DNA biotinylated, streptavidin capture, LC-MS/MS, label-free; filtered against the OCT4 antibody in uninfected hFibs
[1] = target: OCT4 in hESCs (human (endogenous in hESCs)) (UniProt Q01860); assay: affinity purification with mass spectrometry; ChIP-SICAP: anti-OCT4 antibody (ab19857) on Protein G beads, DSG + formaldehyde cross-linked sonicated chromatin of hESCs; DNA biotinylated, streptavidin capture, LC-MS/MS, label-free; filtered against rabbit IgG in hESCs

Molecule | binding (OCT4 wild type (human)) | binding [1]
RUNX1 (from UniProt Q01196 1-453) | binds | –
CBX3 (from UniProt Q13185 1-183) | binds | binds
SUPT16H (from UniProt Q9Y5B9 1-1047) | binds | binds
PAX3 (from UniProt P23760 1-479) | binds | –
GATA2 (from UniProt P23769 1-480) | binds | –
B1 | – | binds
B2 | – | binds
B3 | – | binds
